Caspase activation data for one molecule are collected here from PubChem BioAssay AID720627 (Broad Institute, 2013).

The test in a line: PubChem AID 720627. The conditions noted are these: C2C12 HRAS, caspase 3/7 luminescence, apoptosis; at 35 µM (top of the series).

The other results are listed elsewhere or left out. Where no call is shown, the source marks the result inconclusive.

With `CO[C@H]1C[C@@H]2CC[C@@H](C)[C@@](O)(O2)C(=O)C(=O)N2CCCC[C@H]2C(=O)O[C@H]([C@H](C)C[C@@H]2CC[C@@H](O)[C@H](OC)C2)CC(=O)[C@H](C)/C=C(\C)[C@@H](O)[C@@H](OC)C(=O)[C@H](C)C[C@H](C)/C=C/C=C/C=C/1C`, the caspase activation was found to be 105%.
